This is an account of results in doi:10.1101/459149.

Assay in all cases: co-IP
Experiment [1] deals with FLAG-tagged C-terminus deletion OV20.0 (ΔC) (Orf virus (ORFV)).
Experiment [2] addresses FLAG-tagged Kozak OV20.0 (K20), the full-length isoform only (Orf virus (ORFV)).
The target of experiment [3] is FLAG-tagged OV20.0 produced during infection with recombinant ORFV (Orf virus (ORFV)).
Experiment [4] has as its target FLAG-tagged short form OV20.0 (sh20), N-terminally truncated isoform (Orf virus (ORFV)).
The target of experiment [5] is FLAG-tagged wild-type OV20.0 (ORFV) (Orf virus (ORFV)).

These are yes or no findings as the source states them, for the method shown. In cells and extracts the contact can be indirect. For some assays here: Binding can be weak; no strength is given. For some assays here: Tags and fused reporters may be left off the sequences shown.

B1: endogenous adenosine deaminase acting on RNA 1 (ADAR1) (protein, UniProt P55265-5 1-931)
chain: MAEIKEKICDYLFNVSDSSALNLAKNIGLTKARDINAVLIDMERQGDVYRQGTTPPIWHLTDKKRERMQIKRNTNSVPETAPAAIPETKRNAEFLTCNIPTSNASNNMVTTEKVENGQEPVIKLENRQEARPEPARLKPPVHYNGPSKAGYVDFENGQWATDDIPDDLNSIRAAPGEFRAIMEMPSFYSHGLPRCSPYKKLTECQLKNPISGLLEYAQFASQTCEFNMIEQSGPPHEPRFKFQVVINGREFPPAEAGSKKVAKQDAAMKAMTILLEEAKAKDSGKSEESSHYSTEKESEKTAESQTPTPSATSFFSGKSPVTTLLECMHKLGNSCEFRLLSKEGPAHEPKFQYCVAVGAQTFPSVSAPSKKVAKQMAAEEAMKALHGEATNSMASDNQPEGMISESLDNLESMMPNKVRKIGELVRYLNTNPVGGLLEYARSHGFAAEFKLVDQSGPPHEPKFVYQAKVGGRWFPAVCAHSKKQGKQEAADAALRVLIGENEKAERMGFTEVTPVTGASLRRTMLLLSRSPEAQPKTLPLTGSTFHDQIAMLSHRCFNTLTNSFQPSLLGRKILAAIIMKKDSEDMGVVVSLGTGNRCVKGDSLSLKGETVNDCHAEIISRRGFIRFLYSELMKYNSQTAKDSIFEPAKGGEKLQIKKTVSFHLYISTAPCGDGALFDKSCSDRAMESTESRHYPVFENPKQGKLRTKVENGEGTIPVESSDIVPTWDGIRLGERLRTMSCSDKILRWNVLGLQGALLTHFLQPIYLKSVTLGYLFSQGHLTRAICCRVTRDGSAFEDGLRHPFIVNHPKVGRVSIYDSKRQSGKTKETSVNWCLADGYDLEILDGTRGTVDGPRNELSRVSKKNIFLLFKKLCSFRYRRDLLRLSYGEAKKAARDYETAKNYFKKGLKDMGYGNWISKPQEEKNFYLCPV
Take B1: the binding result in experiment [1] was “no binding”; in experiment [2] it was “binds”; in experiment [3], “binds”; in experiment [4], “binds”.

B2: HA-tagged wild-type ADAR1 (p110) (protein, UniProt P55265-5 1-931)
chain: B1 chain
Consider B2, for which the binding entry in experiment [5] is recorded as “binds”.
